The list shows only some results of the screen, not a fair sample: it gathers tests that were run many times, whatever their T/C, doses with no T/C, and many T/C values between a quarter and a half above the control. Further doses and runs are listed elsewhere. T/C gives the treated animals as a percentage of the vehicle group. Some entries give survivors of the animals treated and no T/C: the source files T/C as zero there, which appears to mark a toxic dose or a test without result, not a measured value. Some doses without a T/C left all or most animals alive at the check, yet need not have been tolerated: the source hardly ever lists a survival T/C far under the control, and the zero likely stands for such cases as well. Survivors were counted at the toxicity check, usually on the fifth day, unless a day is given; later deaths do not show. Schedules are NCI's codes, taken here to give the interval after Q, in days (D) or hours (H), and the number of doses after X. Some entries were tested several times; the results are listed from low to high. Where survival is the endpoint, this PubChem deposit counts one and a half times the control or more as active, and values a quarter to a half above the control carry no call in these data; other NCI protocols may use other cut-offs.
Test system: P388 leukemia ip, CD2F1 mice, survival T/C
Assay: NCI In Vivo Anticancer Drug Screen. Data for tumor model P388 Leukemia (intraperitoneal) in CD2F1 (CDF1) mice
Settings: T/C endpoint: median survival time, higher T/C = longer survival
[1] = dose: 10.0 mg/kg/injection, schedule: Q01DX009 (ip), vehicle: Klucel (hydroxypropylcellulose) (HPC)
[2] = dose: 20.0 mg/kg/injection, schedule: Q01DX009 (ip), vehicle: Klucel (hydroxypropylcellulose) (HPC)
[3] = dose: 240.0 mg/kg/injection, schedule: Q01DX005 (ip), vehicle: saline with Tween-80
[4] = dose: 50.0 mg/kg/injection, schedule: Q01DX009 (ip), vehicle: saline with Tween-80
[5] = dose: 120.0 mg/kg/injection, schedule: Q01DX005 (ip), vehicle: saline with Tween-80
[6] = dose: 100.0 mg/kg/injection, schedule: Q01DX009 (ip), vehicle: saline with Tween-80
[7] = dose: 200.0 mg/kg/injection, schedule: Q01DX009 (ip), vehicle: saline with Tween-80
[8] = dose: 100.0 mg/kg/injection, schedule: Q01DX005 (ip), vehicle: saline with Tween-80
[9] = dose: 200.0 mg/kg/injection, schedule: Q01DX005 (ip), vehicle: saline with Tween-80
[10] = dose: 100.0 mg/kg/injection, schedule: Q04DX003 (ip), vehicle: saline with Tween-80
[11] = dose: 200.0 mg/kg/injection, schedule: Q04DX003 (ip), vehicle: saline with Tween-80
[12] = dose: 400.0 mg/kg/injection, schedule: Q04DX003 (ip), vehicle: saline with Tween-80
[13] = dose: 200.0 mg/kg/injection, schedule: Q01DX009 (ip), vehicle: Klucel (hydroxypropylcellulose) (HPC)
[14] = dose: 400.0 mg/kg/injection, schedule: Q04DX002 (ip), vehicle: saline with Tween-80

C[N+]1(C)CCC(=O)C(c2ccccc2)C1 (stereo not given)
survivor count (dose: 200.0 mg/kg/injection, schedule: Q04DX003 (ip), vehicle: saline): 0 of 6

COc1cc2c(cc1OC)-c1ccc(OC)c(=O)cc1CC(NC(=O)C(C)=O)C2 (stereo not given)
survivor count (dose: 2.5 mg/kg/injection, schedule: Q01DX009 (ip), vehicle: Klucel (hydroxypropylcellulose) (HPC)): 5 of 6
survivor count (dose: 5.0 mg/kg/injection, schedule: Q01DX009 (ip), vehicle: Klucel (hydroxypropylcellulose) (HPC)): 0 of 6
survivor count [1]: 0 of 6
survivor count [2]: 0 of 6
survivor count (dose: 40.0 mg/kg/injection, schedule: Q01DX009 (ip), vehicle: Klucel (hydroxypropylcellulose) (HPC)): 0 of 6
T/C (dose: 156.0 micrograms/kg/injection, schedule: Q01DX009 (ip), vehicle: Klucel (hydroxypropylcellulose) (HPC)): 134 % of control
T/C (dose: 313.0 micrograms/kg/injection, schedule: Q01DX009 (ip), vehicle: Klucel (hydroxypropylcellulose) (HPC)): 142 % of control

CON1C(=O)C(c2cccs2)=C2SCC=C21
survivor count [3]: 0 of 6

Cc1cc(C(=O)N/N=C/c2ccccc2O)c2cc(Br)ccc2n1
survivor count (dose: 6.25 mg/kg/injection, schedule: Q01DX009 (ip), vehicle: saline with Tween-80): 6 of 6
survivor count [4]: 6 of 6

COc1ccc(OCCC(=O)O)cc1
survivor count (dose: 12.5 mg/kg/injection, schedule: Q01DX009 (ip), vehicle: saline with Tween-80): 6 of 6

CN1CC2CCCCN2CC(Cc2ccccc2)([N+](=O)[O-])C1 (stereo not given)
survivor count (dose: 400.0 mg/kg/injection, schedule: Q04DX002 (ip), vehicle: saline): 4 of 6

CN(CC#N)Cc1ccccc1
survivor count [5]: 0 of 6
survivor count [3]: 0 of 6

CCC1CN2CCc3cc(OC)c(OC)cc3C2CC1Cl (stereo not given)
survivor count [6]: 3 of 6
survivor count [7]: 0 of 6

CC(=O)C[n+]1ccccc1Sc1ccccc1C
survivor count [8]: 3 of 5
survivor count [9]: 0 of 5

CC(Cl)(C=O)c1ccccc1 (stereo not given)
survivor count [3]: 0 of 6

CS1=C2C(=O)CC(C)(C)CC2=Nc2ccccc21 (stereo not given)
survivor count [8]: 0 of 6
survivor count [9]: 0 of 6

COc1cccc2c1C(=O)c1c(O)c3c(c(O)c1C2=O)CC(O)(/C(C)=N/NC(=O)CCCCCC(=O)N/N=C(\C)C1(O)Cc2c(O)c4c(c(O)c2C(OC2CC(N)C(O)C(C)O2)C1)C(=O)c1c(OC)cccc1C4=O)CC3OC1CC(N)C(O)C(C)O1 (stereo not given)
T/C (dose: 0.78 mg/kg/injection, schedule: Q01DX009 (ip), vehicle: water): 135 % of control
survivor count (dose: 25.0 mg/kg/injection, schedule: Q01DX009 (ip), vehicle: water): 3 of 3 and 5 of 5

OC1(c2nccc3ccccc23)CCN(CCc2ccccc2)CC1
survivor count [6]: 6 of 6
survivor count [7]: 6 of 6

COc1ccc(CC2c3ccccc3CC[N+]2(C)C)cc1Oc1ccc(CC2c3ccccc3CC[N+]2(C)C)cc1 (stereo not given)
survivor count (dose: 6.25 mg/kg/injection, schedule: Q04DX003 (ip), vehicle: saline with Tween-80): 0 of 6
survivor count (dose: 12.5 mg/kg/injection, schedule: Q04DX003 (ip), vehicle: saline with Tween-80): 0 of 6
survivor count (dose: 25.0 mg/kg/injection, schedule: Q04DX003 (ip), vehicle: saline with Tween-80): 0 of 6
survivor count [10]: 0 of 6
survivor count [11]: 0 of 6
survivor count [12]: 0 of 6

O=C(CCl)Nc1nc(=O)[nH]s1
survivor count [13]: 0 of 6

CCOS(=O)c1ccc(C)cc1 (stereo not given)
survivor count (dose: 100.0 mg/kg/injection, schedule: Q01DX009 (ip), vehicle: Klucel (hydroxypropylcellulose) (HPC)): 3 of 6
survivor count [13]: 0 of 6

CC(C)(CNC(=O)C12CC3CC(CC(C3)C1)C2)NC(=O)C12CC3CC(CC(C3)C1)C2
survivor count (dose: 50.0 mg/kg/injection, schedule: Q01DX005 (ip), vehicle: Klucel (hydroxypropylcellulose) (HPC)): 5 of 5
survivor count (dose: 200.0 mg/kg/injection, schedule: Q01DX005 (ip), vehicle: Klucel (hydroxypropylcellulose) (HPC)): 5 of 5

N#CC1CCCC(C#N)N1 (stereo not given)
survivor count (dose: 50.0 mg/kg/injection, schedule: Q01DX005 (ip), vehicle: saline): 0 of 5
survivor count (dose: 100.0 mg/kg/injection, schedule: Q01DX005 (ip), vehicle: saline): 0 of 5
survivor count (dose: 200.0 mg/kg/injection, schedule: Q01DX005 (ip), vehicle: saline): 0 of 5

Fc1ccccc1C(Nc1nncs1)Nc1nncs1
T/C [5]: 127 and 129 % of control
T/C [3]: 145 % of control

CN1CCc2cc(O)c(O)cc2C1
survivor count (dose: 400.0 mg/kg/injection, schedule: Q04DX003 (ip), vehicle: saline): 2 of 6

NC(=O)c1[nH]cnc1O
T/C [9]: 132 % of control
survivor count [14]: 0 of 6

COC1/C=C/OC2(C)Oc3c(C)c(O)c4c(O)c(c(/C=N/N5C(C)CN(Cc6ccccc6C#N)CC5C)c(O)c4c3C2=O)NC(=O)/C(C)=C\C=C\C(C)C(O)C(C)C(O)C(C)C(OC(C)=O)C1C (stereo not given)
T/C [4]: 125 % of control
survivor count [7]: 1 of 6

[Se]c1nccn2cnnc12
survivor count (dose: 100.0 mg/kg/injection, schedule: Q01DX001 (ip), vehicle: saline with Tween-80): 0 of 6
survivor count (dose: 200.0 mg/kg/injection, schedule: Q01DX001 (ip), vehicle: saline with Tween-80): 0 of 6
survivor count (dose: 400.0 mg/kg/injection, schedule: Q01DX001 (ip), vehicle: saline with Tween-80): 0 of 6

CCCCCCCCCCCCCCCCCC(=O)[O][Pb]([CH3])([CH3])[CH3]
survivor count [1]: 5 of 6
survivor count [2]: 4 of 6

C=C(C#N)C1OC2OC(C)(C)OC2C1OCCCCCCCC (stereo not given)
survivor count [14]: 1 of 6

CC1=C(C)C(=O)c2cc3c(-c4ccccc4)oc(-c4ccccc4)c3cc2C1=O
survivor count [8]: 6 of 6
survivor count [9]: 6 of 6

COC1/C=C/OC2(C)Oc3c(C)c(O)c4c(c3C2=O)C(=O)c2cnc(nc2C4=O)/C(C)=C\C=C\C(C)C(O)C(C)C(O)C(C)C(OC(C)=O)C1C (stereo not given)
survivor count (dose: 200.0 mg/kg/injection, schedule: Q01DX009 (ip), vehicle: other): 3 of 5
survivor count (dose: 400.0 mg/kg/injection, schedule: Q01DX009 (ip), vehicle: other): 0 of 5

CCOC(=O)CCN(CCN(C)C)c1cc(O)c2c(c1O)C(=O)c1ccccc1C2=O
T/C [9]: 133 % of control
T/C (dose: 400.0 mg/kg/injection, schedule: Q01DX005 (ip), vehicle: saline with Tween-80): 136 % of control

CCCCCCCCCCCCCCCCCS(=O)S(=O)O (stereo not given)
T/C (dose: 400.0 mg/kg/injection, schedule: Q01DX009 (ip), vehicle: saline with Tween-80): 131 % of control

COc1ccc(NC(=S)Nc2ccc(S(=O)(=O)N3CCCCC3)cc2)cc1
survivor count (dose: 50.0 mg/kg/injection, schedule: Q01DX009 (ip), vehicle: Klucel (hydroxypropylcellulose) (HPC)): 6 of 6
survivor count [13]: 3 of 6

CCCCN(C)N=Nc1ccc(CCCC(=O)OCC)cc1
T/C [4]: 145 % of control
T/C [6]: 127 % of control
survivor count [10]: 0 of 6
T/C (dose: 132.0 mg/kg/injection, schedule: Q04DX003 (ip), vehicle: saline with Tween-80): 131 % of control
survivor count [7]: 5 of 6
T/C [11]: 136 and 140 % of control
T/C (dose: 300.0 mg/kg/injection, schedule: Q04DX003 (ip), vehicle: saline with Tween-80): 131 % of control
T/C [12]: 136 % of control

From PubChem BioAssay AID330 (DTP/NCI, 2004)
